Laboratory results published in the supplement of paper PMC12819154, “High-throughput peptide-centric local stability assay extends protein–ligand identification to membrane proteins, tissues and bacteria” (Nature Structural & Molecular Biology, 2025).
The list shows a part of the results. Most values lie at the level of the controls, where differences are scatter.

By UniProt entry, the sequences of proteins in these tests, tags left out. Where a name states a change or a piece, a line headed by the entry shows the natural chain unless it says otherwise.
UniProt Q9BUE0: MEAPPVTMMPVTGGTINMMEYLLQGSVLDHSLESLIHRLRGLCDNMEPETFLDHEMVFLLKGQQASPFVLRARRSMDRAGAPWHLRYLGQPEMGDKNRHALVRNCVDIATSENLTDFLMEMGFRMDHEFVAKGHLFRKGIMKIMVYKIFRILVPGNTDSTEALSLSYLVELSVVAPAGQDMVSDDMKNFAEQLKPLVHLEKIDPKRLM
UniProt Q9BRS2: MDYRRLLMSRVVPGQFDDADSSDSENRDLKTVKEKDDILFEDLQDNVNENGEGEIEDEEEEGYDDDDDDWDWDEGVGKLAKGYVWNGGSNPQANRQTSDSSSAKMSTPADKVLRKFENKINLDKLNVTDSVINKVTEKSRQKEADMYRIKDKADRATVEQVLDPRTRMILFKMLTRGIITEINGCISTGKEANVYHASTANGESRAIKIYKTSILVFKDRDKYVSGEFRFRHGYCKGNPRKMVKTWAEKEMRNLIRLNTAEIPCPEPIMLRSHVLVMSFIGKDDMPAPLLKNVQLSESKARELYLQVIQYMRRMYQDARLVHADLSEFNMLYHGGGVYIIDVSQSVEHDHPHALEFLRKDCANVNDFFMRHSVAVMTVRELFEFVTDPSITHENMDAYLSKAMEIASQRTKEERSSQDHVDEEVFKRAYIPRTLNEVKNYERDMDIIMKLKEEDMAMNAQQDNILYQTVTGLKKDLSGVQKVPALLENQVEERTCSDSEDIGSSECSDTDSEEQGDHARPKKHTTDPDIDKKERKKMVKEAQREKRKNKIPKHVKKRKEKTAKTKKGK
UniProt Q9BQE4, whole entry: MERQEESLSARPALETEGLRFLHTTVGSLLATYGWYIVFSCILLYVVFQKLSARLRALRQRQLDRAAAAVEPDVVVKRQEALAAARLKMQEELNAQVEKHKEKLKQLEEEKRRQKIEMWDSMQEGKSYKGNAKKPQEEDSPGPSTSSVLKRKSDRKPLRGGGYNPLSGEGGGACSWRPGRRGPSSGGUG
UniProt Q9BR77: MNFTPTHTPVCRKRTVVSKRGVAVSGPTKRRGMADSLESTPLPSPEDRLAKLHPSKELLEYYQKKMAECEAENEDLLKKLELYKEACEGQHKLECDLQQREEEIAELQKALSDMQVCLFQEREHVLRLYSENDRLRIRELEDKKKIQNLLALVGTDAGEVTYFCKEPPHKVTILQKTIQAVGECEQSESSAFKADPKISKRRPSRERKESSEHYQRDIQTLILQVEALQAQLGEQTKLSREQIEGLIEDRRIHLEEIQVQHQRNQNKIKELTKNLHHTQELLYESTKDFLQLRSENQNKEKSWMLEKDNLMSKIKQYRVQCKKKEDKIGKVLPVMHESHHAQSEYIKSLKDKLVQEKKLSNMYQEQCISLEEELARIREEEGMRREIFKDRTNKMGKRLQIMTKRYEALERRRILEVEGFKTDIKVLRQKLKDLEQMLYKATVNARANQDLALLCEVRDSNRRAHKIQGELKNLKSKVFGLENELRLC
UniProt Q9BSL1: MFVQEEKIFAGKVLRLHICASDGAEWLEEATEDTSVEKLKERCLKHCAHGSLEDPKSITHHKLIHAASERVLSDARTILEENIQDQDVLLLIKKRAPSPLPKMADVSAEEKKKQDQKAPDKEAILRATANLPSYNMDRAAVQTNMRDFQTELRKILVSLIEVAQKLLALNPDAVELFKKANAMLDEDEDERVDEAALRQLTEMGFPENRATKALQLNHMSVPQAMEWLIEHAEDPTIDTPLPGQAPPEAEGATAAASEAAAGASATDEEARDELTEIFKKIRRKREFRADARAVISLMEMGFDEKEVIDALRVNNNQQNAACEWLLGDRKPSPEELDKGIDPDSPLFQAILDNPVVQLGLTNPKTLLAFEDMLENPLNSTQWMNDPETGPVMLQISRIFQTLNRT
UniProt Q9BS26: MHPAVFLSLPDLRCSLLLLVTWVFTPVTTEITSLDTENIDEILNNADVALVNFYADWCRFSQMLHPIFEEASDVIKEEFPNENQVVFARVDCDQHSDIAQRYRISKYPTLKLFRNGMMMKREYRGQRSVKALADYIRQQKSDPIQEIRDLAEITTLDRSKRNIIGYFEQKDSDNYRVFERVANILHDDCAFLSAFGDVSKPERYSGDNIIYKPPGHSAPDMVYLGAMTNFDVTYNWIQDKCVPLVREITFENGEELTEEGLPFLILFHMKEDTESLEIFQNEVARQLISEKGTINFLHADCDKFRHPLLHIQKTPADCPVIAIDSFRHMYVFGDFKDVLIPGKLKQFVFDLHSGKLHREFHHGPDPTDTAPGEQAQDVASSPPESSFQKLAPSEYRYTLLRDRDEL
UniProt Q9BQD3: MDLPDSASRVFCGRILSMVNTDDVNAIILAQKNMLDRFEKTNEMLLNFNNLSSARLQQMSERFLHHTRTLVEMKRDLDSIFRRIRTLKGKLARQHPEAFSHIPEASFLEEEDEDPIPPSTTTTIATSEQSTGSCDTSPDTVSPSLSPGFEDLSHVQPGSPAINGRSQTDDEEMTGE
UniProt Q99541: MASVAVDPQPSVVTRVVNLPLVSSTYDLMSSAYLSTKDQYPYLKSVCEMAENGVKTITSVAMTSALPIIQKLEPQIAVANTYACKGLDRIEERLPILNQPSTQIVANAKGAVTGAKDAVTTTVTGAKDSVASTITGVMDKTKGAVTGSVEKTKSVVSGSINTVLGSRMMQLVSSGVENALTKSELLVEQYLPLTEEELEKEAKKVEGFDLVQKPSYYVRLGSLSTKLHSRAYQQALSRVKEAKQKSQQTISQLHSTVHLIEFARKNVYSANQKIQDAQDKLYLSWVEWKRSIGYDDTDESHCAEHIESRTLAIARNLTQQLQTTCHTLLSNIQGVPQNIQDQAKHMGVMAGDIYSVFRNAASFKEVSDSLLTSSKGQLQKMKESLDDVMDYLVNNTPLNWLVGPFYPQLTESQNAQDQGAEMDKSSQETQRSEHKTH
UniProt Q99497, whole entry: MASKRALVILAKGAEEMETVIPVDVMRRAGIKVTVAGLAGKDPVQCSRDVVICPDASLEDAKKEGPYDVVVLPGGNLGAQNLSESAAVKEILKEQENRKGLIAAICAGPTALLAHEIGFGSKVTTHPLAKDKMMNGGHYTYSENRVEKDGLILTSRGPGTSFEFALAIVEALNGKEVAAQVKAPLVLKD
UniProt Q99611, whole entry: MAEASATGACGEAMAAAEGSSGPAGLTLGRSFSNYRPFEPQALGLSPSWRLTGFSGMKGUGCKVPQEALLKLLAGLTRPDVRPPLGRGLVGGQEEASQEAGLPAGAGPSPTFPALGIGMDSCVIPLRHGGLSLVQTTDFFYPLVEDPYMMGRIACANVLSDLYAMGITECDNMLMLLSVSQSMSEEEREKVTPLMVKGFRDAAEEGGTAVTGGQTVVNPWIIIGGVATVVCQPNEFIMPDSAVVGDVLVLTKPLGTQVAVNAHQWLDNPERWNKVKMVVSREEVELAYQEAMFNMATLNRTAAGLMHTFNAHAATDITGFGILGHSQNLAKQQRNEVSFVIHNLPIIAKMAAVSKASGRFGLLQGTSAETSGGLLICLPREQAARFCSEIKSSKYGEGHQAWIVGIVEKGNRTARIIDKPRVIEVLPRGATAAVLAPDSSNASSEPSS
UniProt Q9BSJ8: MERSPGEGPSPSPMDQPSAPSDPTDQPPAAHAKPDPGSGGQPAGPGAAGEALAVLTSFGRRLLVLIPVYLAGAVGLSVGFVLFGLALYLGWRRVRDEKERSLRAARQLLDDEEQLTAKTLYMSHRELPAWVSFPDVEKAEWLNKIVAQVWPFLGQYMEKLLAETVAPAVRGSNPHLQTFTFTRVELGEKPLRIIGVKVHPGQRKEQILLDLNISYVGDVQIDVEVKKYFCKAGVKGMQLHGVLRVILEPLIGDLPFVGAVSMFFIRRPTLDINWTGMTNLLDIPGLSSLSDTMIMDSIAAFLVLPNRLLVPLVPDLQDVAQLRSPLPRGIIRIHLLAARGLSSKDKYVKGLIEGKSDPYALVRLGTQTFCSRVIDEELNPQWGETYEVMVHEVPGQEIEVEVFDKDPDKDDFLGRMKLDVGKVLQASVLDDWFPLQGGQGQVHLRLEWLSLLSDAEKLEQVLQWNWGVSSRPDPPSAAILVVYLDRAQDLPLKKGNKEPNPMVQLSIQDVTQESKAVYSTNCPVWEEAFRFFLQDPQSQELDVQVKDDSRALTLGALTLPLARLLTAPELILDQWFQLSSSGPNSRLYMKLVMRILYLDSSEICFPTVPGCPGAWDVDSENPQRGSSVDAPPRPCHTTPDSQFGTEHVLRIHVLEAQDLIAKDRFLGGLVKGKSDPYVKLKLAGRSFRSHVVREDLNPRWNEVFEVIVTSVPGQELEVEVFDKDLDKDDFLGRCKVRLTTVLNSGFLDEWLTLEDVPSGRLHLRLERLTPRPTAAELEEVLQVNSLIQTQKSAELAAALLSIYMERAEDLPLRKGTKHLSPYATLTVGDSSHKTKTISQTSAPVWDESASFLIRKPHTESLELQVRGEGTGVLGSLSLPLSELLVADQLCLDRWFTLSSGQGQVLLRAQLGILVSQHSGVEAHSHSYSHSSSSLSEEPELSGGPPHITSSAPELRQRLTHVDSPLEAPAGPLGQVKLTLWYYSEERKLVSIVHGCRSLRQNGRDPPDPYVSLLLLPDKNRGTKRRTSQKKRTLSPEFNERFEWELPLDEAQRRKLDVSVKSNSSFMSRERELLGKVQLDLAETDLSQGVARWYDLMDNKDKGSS
UniProt Q9BS16: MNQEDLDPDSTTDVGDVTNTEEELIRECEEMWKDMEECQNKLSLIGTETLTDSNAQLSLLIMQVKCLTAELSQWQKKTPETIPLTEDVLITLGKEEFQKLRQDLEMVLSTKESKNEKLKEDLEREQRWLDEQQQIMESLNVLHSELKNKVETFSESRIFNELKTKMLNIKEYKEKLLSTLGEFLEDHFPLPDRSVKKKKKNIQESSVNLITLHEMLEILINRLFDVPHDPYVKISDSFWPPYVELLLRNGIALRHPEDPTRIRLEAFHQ
UniProt Q9BQ65: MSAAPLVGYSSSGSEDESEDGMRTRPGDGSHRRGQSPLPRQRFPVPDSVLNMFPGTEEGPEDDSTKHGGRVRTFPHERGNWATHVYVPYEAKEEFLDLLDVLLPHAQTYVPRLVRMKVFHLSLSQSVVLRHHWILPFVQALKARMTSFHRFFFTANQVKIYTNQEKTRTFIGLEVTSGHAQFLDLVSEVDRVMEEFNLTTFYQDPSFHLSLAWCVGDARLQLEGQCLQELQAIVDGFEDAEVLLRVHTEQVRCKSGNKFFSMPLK
UniProt Q9BTT4: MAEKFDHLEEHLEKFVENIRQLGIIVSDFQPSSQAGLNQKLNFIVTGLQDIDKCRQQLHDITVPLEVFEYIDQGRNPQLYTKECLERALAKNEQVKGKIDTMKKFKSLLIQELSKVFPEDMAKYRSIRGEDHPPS
UniProt Q9BQC3: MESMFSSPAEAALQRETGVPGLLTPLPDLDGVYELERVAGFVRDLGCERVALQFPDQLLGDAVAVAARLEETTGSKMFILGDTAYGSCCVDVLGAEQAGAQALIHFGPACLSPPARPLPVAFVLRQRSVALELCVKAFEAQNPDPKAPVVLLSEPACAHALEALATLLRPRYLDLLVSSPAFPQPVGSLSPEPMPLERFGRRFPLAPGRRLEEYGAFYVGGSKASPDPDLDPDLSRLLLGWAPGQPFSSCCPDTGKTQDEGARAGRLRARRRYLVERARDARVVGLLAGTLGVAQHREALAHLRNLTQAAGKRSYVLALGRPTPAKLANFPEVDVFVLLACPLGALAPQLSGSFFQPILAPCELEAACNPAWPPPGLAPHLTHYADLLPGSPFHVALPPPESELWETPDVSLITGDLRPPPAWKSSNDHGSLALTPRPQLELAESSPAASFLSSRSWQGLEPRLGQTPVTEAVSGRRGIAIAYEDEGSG
UniProt Q9BQQ3: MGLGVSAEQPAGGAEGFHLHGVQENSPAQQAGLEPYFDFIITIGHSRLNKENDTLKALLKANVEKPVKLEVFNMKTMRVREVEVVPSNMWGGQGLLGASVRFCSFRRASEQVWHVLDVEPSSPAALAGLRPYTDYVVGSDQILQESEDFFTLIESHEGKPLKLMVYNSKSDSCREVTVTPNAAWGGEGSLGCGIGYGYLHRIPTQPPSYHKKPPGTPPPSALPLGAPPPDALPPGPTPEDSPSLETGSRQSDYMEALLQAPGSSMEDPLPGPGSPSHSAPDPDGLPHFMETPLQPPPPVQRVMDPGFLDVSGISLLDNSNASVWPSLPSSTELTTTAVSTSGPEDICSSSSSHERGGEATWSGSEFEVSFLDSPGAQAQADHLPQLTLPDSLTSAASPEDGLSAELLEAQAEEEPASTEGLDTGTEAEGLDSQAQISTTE
UniProt Q9BPY3: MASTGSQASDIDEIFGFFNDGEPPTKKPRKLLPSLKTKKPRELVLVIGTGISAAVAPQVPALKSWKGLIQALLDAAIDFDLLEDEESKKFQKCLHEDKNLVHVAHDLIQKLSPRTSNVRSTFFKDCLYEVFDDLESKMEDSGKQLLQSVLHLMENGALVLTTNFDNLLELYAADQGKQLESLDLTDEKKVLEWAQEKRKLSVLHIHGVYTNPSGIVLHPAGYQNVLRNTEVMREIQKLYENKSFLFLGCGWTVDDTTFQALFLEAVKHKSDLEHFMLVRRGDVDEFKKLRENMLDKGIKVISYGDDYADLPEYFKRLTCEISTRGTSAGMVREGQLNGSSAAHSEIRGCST

Compound: Cc1nc(Nc2ncc(C(=O)Nc3c(C)cccc3Cl)s2)cc(N2CCN(CCO)CC2)n1 [dasatinib]
Test: log2 fold change of tryptic peptide abundance, ligand vs vehicle (limited proteolysis) (log2 ratio); higher = more trypsin-susceptible (destabilized)
Details: ligand concentration: 5 uM; sample: K562 cleared lysate

| Target | log2 fold change |
| --- | --- |
| MED18 (peptide sequence: NFAEQLKPLVHLEK, peptide start residue: 188) (UniProt Q9BUE0) | 0.147 |
| UniProt Q9BUB5 (peptide sequence: VQGAVSLQNGK, peptide start residue: 63) | 0.18 |
| UniProt Q9BS31 (peptide sequence: GNLNIHQR, peptide start residue: 331) | 0.457 |
| RIOK1 (peptide sequence: TSILVFKDRDK, peptide start residue: 212) (UniProt Q9BRS2) | -0.552 |
| UniProt Q9BQE4 (peptide sequence: AAAAVEPDVVVK, peptide start residue: 66) | 0.25 |
| CCDC77 (peptide sequence: SWMLEKDNLMSK, peptide start residue: 302) (UniProt Q9BR77) | 0.198 |
| UBAC1 (peptide sequence: ERCLKHCAHGSLEDPK, peptide start residue: 41) (UniProt Q9BSL1) | 1.07 |
| UniProt Q9BSW2 (peptide sequence: QLWLQLK, peptide start residue: 181) | -0.238 |
| ZNF184 (peptide sequence: AFNGPSTFIR, peptide start residue: 398) (UniProt Q99676) | 0.212 |
| UniProt Q9BS26 (peptide sequence: HMYVFGDFKDVLIPGKLK, peptide start residue: 328) | 0.227 |
| KXD1 (peptide sequence: DLDSIFRR, peptide start residue: 76) (UniProt Q9BQD3) | -0.0308 |
| UniProt Q99541 (peptide sequence: DQYPYLK, peptide start residue: 38) | -0.246 |
| PARK7 (peptide sequence: KGLIAAICAGPTALLAHEIGFGSK, peptide start residue: 99) (UniProt Q99497) | 0.167 |
| SEPHS2 (peptide sequence: LLAGLTRPDVRPPLGR, peptide start residue: 72) (UniProt Q99611) | -0.0645 |
| UniProt Q9BSJ8 (peptide sequence: GSNPHLQTFTFTR, peptide start residue: 171) | -0.594 |
| FYCO1 (peptide sequence: TLTTGSSAYLWKPPSR, peptide start residue: 182) (UniProt Q9BQS8) | 0.385 |
| CENPK (peptide sequence: LKEDLER, peptide start residue: 118) (UniProt Q9BS16) | -0.067 |
| USB1 (peptide sequence: TRPGDGSHR, peptide start residue: 24) (UniProt Q9BQ65) | -0.295 |
| TSG101 (peptide sequence: DLKPVLDSYVFNDGSSR, peptide start residue: 34) (UniProt Q99816) | -0.612 |
| MED10 (peptide sequence: SLLIQELSK, peptide start residue: 107) (UniProt Q9BTT4) | -0.21 |
| DPH2 (peptide sequence: VVGLLAGTLGVAQHR, peptide start residue: 283) (UniProt Q9BQC3) | -0.127 |
| GORASP1 (peptide sequence: ANVEKPVKLEVFNMK, peptide start residue: 61) (UniProt Q9BQQ3) | 0.357 |
| RUFY1 (peptide sequence: ELELQIGMK, peptide start residue: 420) (UniProt Q96T51) | 0.191 |
| ACO2 (peptide sequence: EHAALEPR, peptide start residue: 672) (UniProt Q99798) | 0.217 |
| VRK1 (peptide sequence: LLDYTEKPLYENLR, peptide start residue: 308) (UniProt Q99986) | -0.15 |
| LPIN3 (peptide sequence: WDDKVVISDIDGTITK, peptide start residue: 636) (UniProt Q9BQK8) | 0.345 |
| TUBGCP2 (peptide sequence: ATPQVPVLR, peptide start residue: 880) (UniProt Q9BSJ2) | -0.0962 |
| FAM118B (peptide sequence: EGQLNGSSAAHSEIR, peptide start residue: 333) (UniProt Q9BPY3) | 0.0899 |
| TXNDC17 (peptide sequence: NLKVTAVPTLLK, peptide start residue: 87) (UniProt Q9BRA2) | 0.318 |

Single values from above.
LPIN3 (peptide sequence: WDDKVVISDIDGTITK, peptide start residue: 636) (UniProt Q9BQK8) | log2 fold change: 0.345
UniProt Q9BQE4 (peptide sequence: AAAAVEPDVVVK, peptide start residue: 66) | log2 fold change: 0.25
